{"source": "the supplement of paper PMC8728848", "binders": {"B1": {"name": "Erv41-EDTA (Saccharomyces cerevisiae), Q04651 (protein)", "chain": "MKFLVNVALVFMVVYISYIYAAAPEHHHHHHDYDIPTTENLYFQGAMGYIDQQYVVDSQVRDTVQINMDIYVNTKCDWLQINVRDQTMDRKLVLEELQLEEMPFFIPYDTKVNDINEIITPELDEILGEAIPAEFREKLDTRSFFDESDPNKAHLPEFNGCHVFGSIPVNRVSGELQITAKSLGYVASRKAPLEELKFNHVINEFSFGDFYPYIDNPLDNTAQFNQDEPLTTYVYYTSVVPTLFKKLGAEVDTNQYSVNDYRYLYKDVAAKGDKMPGIFFKYNFEPLSIVVSDVRL"}}, "experiment_in_all_cases": "glycan array binding signal (z-score within array); higher = stronger binding", "settings_in_all_cases": "glycan notation: IUPAC condensed, linker removed", "key": {"[1]": {"target": "Man(a1-2)Man(a1-3)[Man(a1-2)Man(a1-6)]Man", "outline": "(§1)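 Glycan array data were curated from 3228 arrays in the Consortium for Functional Glycomics database and kept only where the protein sequence was available. Glycan names were converted to IUPAC-condensed notation, and columns mapping to the same glycan were averaged. The binding signal is a within-array Z-score, averaged across arrays of the same protein sequence at different concentrations or buffers and across linkers. Negative Z-scores can be read as non-binding.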"}, "[2]": {"target": "Man(a1-2)Man(a1-3)[Man(a1-2)Man(a1-6)]Man(a1-6)[Man(a1-2)Man(a1-2)Man(a1-3)]Man", "outline": "as §1"}, "[3]": {"target": "Man(a1-2)Man(a1-3)[Man(a1-2)Man(a1-6)]Man(a1-6)[Man(a1-2)Man(a1-2)Man(a1-3)]Man(b1-4)GlcNAc(b1-4)GlcNAc", "outline": "as §1"}, "[4]": {"target": "Man(a1-2)Man(a1-3)[Man(a1-6)]Man(a1-6)[Man(a1-2)Man(a1-3)]Man(b1-4)GlcNAc(b1-4)GlcNAc", "outline": "as §1"}, "[5]": {"target": "Man(a1-2)Man(a1-6)[Man(a1-3)]Man(a1-6)[Man(a1-2)Man(a1-2)Man(a1-3)]Man", "outline": "as §1"}, "[6]": {"target": "Man(a1-2)Man(a1-6)[Man(a1-3)]Man(a1-6)[Man(a1-2)Man(a1-2)Man(a1-3)]Man(b1-4)GlcNAc(b1-4)GlcNAc", "outline": "as §1"}, "[7]": {"target": "Man(a1-3)[Man(a1-6)]Man", "outline": "as §1"}, "[8]": {"target": "Man(a1-3)[Man(a1-6)]Man(a1-6)[Man(a1-2)Man(a1-3)]Man(b1-4)GlcNAc(b1-4)GlcNAc", "outline": "as §1"}, "[9]": {"target": "Man(a1-3)[Man(a1-6)]Man(a1-6)[Man(a1-3)]Man", "outline": "as §1"}, "[10]": {"target": "Man(a1-3)[Man(a1-6)]Man(a1-6)[Man(a1-3)]Man(b1-4)GlcNAc(b1-4)GlcNAc", "outline": "as §1"}, "[11]": {"target": "Man(a1-3)[Man(a1-6)]Man(b1-4)GlcNAc(b1-4)GlcNAc", "outline": "as §1"}, "[12]": {"target": "Man(a1-3)[Man(a1-6)]Man(b1-4)GlcNAc(b1-4)[Fuc(a1-6)]GlcNAc", "outline": "as §1"}, "[13]": {"target": "Man(a1-6)Man", "outline": "as §1"}, "[14]": {"target": "Man(b1-4)GlcNAc", "outline": "as §1"}, "[15]": {"target": "MurNAc(b1-4)GlcNAc", "outline": "as §1"}, "[16]": {"target": "Neu5Ac(a2-3)Gal", "outline": "as §1"}, "[17]": {"target": "Neu5Ac(a2-3)Gal(b1-3)GalNAc", "outline": "as §1"}, "[18]": {"target": "Neu5Ac(a2-3)Gal(b1-3)GalNAc(b1-3)Gal(a1-4)Gal(b1-4)Glc", "outline": "as §1"}, "[19]": {"target": "Neu5Ac(a2-3)Gal(b1-3)GalNAc(b1-4)Gal(b1-4)Glc", "outline": "as §1"}, "[20]": {"target": "Neu5Ac(a2-3)Gal(b1-3)GalNAc(b1-4)[Neu5Ac(a2-3)]Gal(b1-4)Glc", "outline": "as §1"}, "[21]": {"target": "Neu5Ac(a2-3)Gal(b1-3)GalNAc(b1-4)[Neu5Ac(a2-8)Neu5Ac(a2-3)]Gal(b1-4)Glc", "outline": "as §1"}, "[22]": {"target": "Neu5Ac(a2-3)Gal(b1-3)GalNAc6S", "outline": "as §1"}, "[23]": {"target": "Neu5Ac(a2-3)Gal(b1-3)GlcNAc", "outline": "as §1"}, "[24]": {"target": "Neu5Ac(a2-3)Gal(b1-3)GlcNAc(b1-2)Man", "outline": "as §1"}, "[25]": {"target": "Neu5Ac(a2-3)Gal(b1-3)GlcNAc(b1-2)Man(a1-3)[GlcNAc(b1-4)][Neu5Ac(a2-3)Gal(b1-3)GlcNAc(b1-2)Man(a1-6)]Man(b1-4)GlcNAc(b1-4)GlcNAc", "outline": "as §1"}, "[26]": {"target": "Neu5Ac(a2-3)Gal(b1-3)GlcNAc(b1-2)Man(a1-3)[Neu5Ac(a2-3)Gal(b1-3)GlcNAc(b1-2)Man(a1-6)]Man(b1-4)GlcNAc(b1-4)GlcNAc", "outline": "as §1"}, "[27]": {"target": "Neu5Ac(a2-3)Gal(b1-3)GlcNAc(b1-2)[Neu5Ac(a2-3)Gal(b1-3)GlcNAc(b1-4)]Man(a1-6)[Neu5Ac(a2-3)Gal(b1-3)GlcNAc(b1-2)Man(a1-3)]Man(b1-4)GlcNAc(b1-4)GlcNAc", "outline": "as §1"}, "[28]": {"target": "Neu5Ac(a2-3)Gal(b1-3)GlcNAc(b1-3)Gal(b1-3)GlcNAc", "outline": "as §1"}, "[29]": {"target": "Neu5Ac(a2-3)Gal(b1-3)GlcNAc(b1-3)Gal(b1-4)GlcNAc", "outline": "as §1"}, "[30]": {"target": "Neu5Ac(a2-3)Gal(b1-3)GlcNAc(b1-3)GalNAc", "outline": "as §1"}, "[31]": {"target": "Neu5Ac(a2-3)Gal(b1-3)GlcNAc(b1-6)GalNAc", "outline": "as §1"}, "[32]": {"target": "Neu5Ac(a2-3)Gal(b1-3)GlcNAc6S", "outline": "as §1"}, "[33]": {"target": "Neu5Ac(a2-3)Gal(b1-3)[Fuc(a1-4)]GlcNAc", "outline": "as §1"}, "[34]": {"target": "Neu5Ac(a2-3)Gal(b1-3)[Fuc(a1-4)]GlcNAc(b1-3)Gal(b1-3)[Fuc(a1-4)]GlcNAc", "outline": "as §1"}, "[35]": {"target": "Neu5Ac(a2-3)Gal(b1-3)[Fuc(a1-4)]GlcNAc(b1-3)Gal(b1-4)[Fuc(a1-3)]GlcNAc", "outline": "as §1"}, "[36]": {"target": "Neu5Ac(a2-3)Gal(b1-3)[GlcNAc(b1-6)]GalNAc", "outline": "as §1"}, "[37]": {"target": "Neu5Ac(a2-3)Gal(b1-3)[Neu5Ac(a2-6)]GalNAc", "outline": "as §1"}, "[38]": {"target": "Neu5Ac(a2-3)Gal(b1-3)[Neu5Ac(a2-6)]GlcNAc(b1-3)[Fuc(a1-3)[Gal(b1-4)]GlcNAc(b1-6)]Gal(b1-4)Glc", "outline": "as §1"}, "[39]": {"target": "Neu5Ac(a2-3)Gal(b1-3)]Neu5Ac(a2-3)Gal(b1-4)]GlcNAc", "outline": "as §1"}, "[40]": {"target": "Neu5Ac(a2-3)Gal(b1-4)Glc", "outline": "as §1"}, "[41]": {"target": "Neu5Ac(a2-3)Gal(b1-4)GlcNAc", "outline": "as §1"}, "[42]": {"target": "Neu5Ac(a2-3)Gal(b1-4)GlcNAc(b1-2)Man", "outline": "as §1"}, "[43]": {"target": "Neu5Ac(a2-3)Gal(b1-4)GlcNAc(b1-2)Man(a1-3)[GlcNAc(b1-4)][Neu5Ac(a2-3)Gal(b1-4)GlcNAc(b1-2)Man(a1-6)]Man(b1-4)GlcNAc(b1-4)GlcNAc", "outline": "as §1"}, "[44]": {"target": "Neu5Ac(a2-3)Gal(b1-4)GlcNAc(b1-2)Man(a1-3)[Neu5Ac(a2-3)Gal(b1-4)GlcNAc(b1-2)Man(a1-6)]Man(b1-4)GlcNAc(b1-4)GlcNAc", "outline": "as §1"}, "[45]": {"target": "Neu5Ac(a2-3)Gal(b1-4)GlcNAc(b1-2)Man(a1-3)[Neu5Ac(a2-3)Gal(b1-4)GlcNAc(b1-2)Man(a1-6)]Man(b1-4)GlcNAc(b1-4)[Fuc(a1-6)]GlcNAc", "outline": "as §1"}}, "note": "The list shows a part of the results."}
{"binder": "B1", "values": [{"measurement": "glycan array binding signal (z-score)", "setting": "[1]", "result": -1.38}, {"measurement": "glycan array binding signal (z-score)", "setting": "[2]", "result": 0.075}, {"measurement": "glycan array binding signal (z-score)", "setting": "[3]", "result": 0.06}, {"measurement": "glycan array binding signal (z-score)", "setting": "[4]", "result": -0.87}, {"measurement": "glycan array binding signal (z-score)", "setting": "[5]", "result": -0.411}, {"measurement": "glycan array binding signal (z-score)", "setting": "[6]", "result": 0.26}, {"measurement": "glycan array binding signal (z-score)", "setting": "[7]", "result": 0.572}, {"measurement": "glycan array binding signal (z-score)", "setting": "[8]", "result": -0.152}, {"measurement": "glycan array binding signal (z-score)", "setting": "[9]", "result": 0.135}, {"measurement": "glycan array binding signal (z-score)", "setting": "[10]", "result": 0.109}, {"measurement": "glycan array binding signal (z-score)", "setting": "[11]", "result": 0.012}, {"measurement": "glycan array binding signal (z-score)", "setting": "[12]", "result": -0.081}, {"measurement": "glycan array binding signal (z-score)", "setting": "[13]", "result": 0.132}, {"measurement": "glycan array binding signal (z-score)", "setting": "[14]", "result": 0.243}, {"measurement": "glycan array binding signal (z-score)", "setting": "[15]", "result": -0.89}, {"measurement": "glycan array binding signal (z-score)", "setting": "[16]", "result": 0.106}, {"measurement": "glycan array binding signal (z-score)", "setting": "[17]", "result": -0.144}, {"measurement": "glycan array binding signal (z-score)", "setting": "[18]", "result": 0.327}, {"measurement": "glycan array binding signal (z-score)", "setting": "[19]", "result": 0.966}, {"measurement": "glycan array binding signal (z-score)", "setting": "[20]", "result": -0.473}, {"measurement": "glycan array binding signal (z-score)", "setting": "[21]", "result": -0.934}, {"measurement": "glycan array binding signal (z-score)", "setting": "[22]", "result": -0.781}, {"measurement": "glycan array binding signal (z-score)", "setting": "[23]", "result": -0.019}, {"measurement": "glycan array binding signal (z-score)", "setting": "[24]", "result": 0.976}, {"measurement": "glycan array binding signal (z-score)", "setting": "[25]", "result": -0.506}, {"measurement": "glycan array binding signal (z-score)", "setting": "[26]", "result": 0.671}, {"measurement": "glycan array binding signal (z-score)", "setting": "[27]", "result": -0.15}, {"measurement": "glycan array binding signal (z-score)", "setting": "[28]", "result": -1.08}, {"measurement": "glycan array binding signal (z-score)", "setting": "[29]", "result": 0.97}, {"measurement": "glycan array binding signal (z-score)", "setting": "[30]", "result": 0.255}, {"measurement": "glycan array binding signal (z-score)", "setting": "[31]", "result": 0.614}, {"measurement": "glycan array binding signal (z-score)", "setting": "[32]", "result": 0.137}, {"measurement": "glycan array binding signal (z-score)", "setting": "[33]", "result": -0.387}, {"measurement": "glycan array binding signal (z-score)", "setting": "[34]", "result": 0.337}, {"measurement": "glycan array binding signal (z-score)", "setting": "[35]", "result": -0.03}, {"measurement": "glycan array binding signal (z-score)", "setting": "[36]", "result": -0.386}, {"measurement": "glycan array binding signal (z-score)", "setting": "[37]", "result": -0.609}, {"measurement": "glycan array binding signal (z-score)", "setting": "[38]", "result": 0.557}, {"measurement": "glycan array binding signal (z-score)", "setting": "[39]", "result": -0.585}, {"measurement": "glycan array binding signal (z-score)", "setting": "[40]", "result": -1.16}, {"measurement": "glycan array binding signal (z-score)", "setting": "[41]", "result": -0.795}, {"measurement": "glycan array binding signal (z-score)", "setting": "[42]", "result": -0.089}, {"measurement": "glycan array binding signal (z-score)", "setting": "[43]", "result": -0.37}, {"measurement": "glycan array binding signal (z-score)", "setting": "[44]", "result": -0.57}, {"measurement": "glycan array binding signal (z-score)", "setting": "[45]", "result": 2.09}]}
